Taken from: PubChem BioAssay AID686938 (Drosophila RNAi Screening Center, 2013)
The deposit covers about 23,000 reagents; below is a random part of those with a known target gene and a result. In the full data, 75 (0.33%) got an active call. 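Raw plate signals without normalisation; calls rest on plate z-scores that were not deposited; ratio present for only 364 wells.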 Reagents against one gene are numbered here. Reagent sequences are not shown. The record does not give: the dose of the treatment.

Test: 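Knock-downs reducing store-operated calcium influx in Drosophila cells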 (primary screen)
System: Drosophila S2R+ cells
Reagents: long dsRNA against Drosophila genes, about 0.25 µg dsRNA per well, roughly 10,000 cells
Time to read-out: 5 days of knock-down before the calcium assay
Conditions: thapsigargin (SERCA pump blocker) to empty calcium stores; entry signal taken 4 min after adding it
Read-out: 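Duplicate raw fluo-4 intensities per well from a plate reader, at rest and four minutes after thapsigargin emptied calcium stores; entry-to-rest ratio filled for only some wells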
Direction: calcium entry signal: higher = stronger calcium signal after store depletion; entry to resting ratio: higher = more calcium entry relative to resting level; resting calcium signal: higher = higher resting calcium signal
Units: calcium entry signal in fluorescence units; resting calcium signal in fluorescence units
Call rule: 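Hit if the duplicate-averaged plate z-score for entry over resting signal is under −3; wells with weak total dye signal (Fmax z < −2) or more than 5 off-targets removed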
Calls: active = strongly reduced calcium entry; inactive = no strong reduction

Depletion of Jhbp13 (Juvenile hormone binding protein 13) gave: calcium entry signal, replicate 1 = 4.91e7; calcium entry signal, replicate 2 = 3.38e7; resting calcium signal, replicate 1 = 1.94e7; resting calcium signal, replicate 2 = 1.52e7; inactive.
Against CG15576, the values are calcium entry signal, replicate 1 = 3.53e7; calcium entry signal, replicate 2 = 4.15e7; resting calcium signal, replicate 1 = 1.49e7; resting calcium signal, replicate 2 = 1.79e7; inactive.
kst (karst) scored calcium entry signal, replicate 1 = 5.30e7; calcium entry signal, replicate 2 = 3.48e7; resting calcium signal, replicate 1 = 3.31e7; resting calcium signal, replicate 2 = 1.44e7; inactive.
Depletion of CG34181 came out at: calcium entry signal, replicate 1 = 2.39e7; calcium entry signal, replicate 2 = 3.31e7; resting calcium signal, replicate 1 = 1.25e7; resting calcium signal, replicate 2 = 1.42e7; inactive.
CG34327 #1 scored calcium entry signal, replicate 1 = 3.30e7; calcium entry signal, replicate 2 = 3.21e7; resting calcium signal, replicate 1 = 1.66e7; resting calcium signal, replicate 2 = 1.61e7; inactive.
Depletion of CG34327 #2 gave: calcium entry signal, replicate 1 = 3.05e7; calcium entry signal, replicate 2 = 4.09e7; resting calcium signal, replicate 1 = 1.51e7; resting calcium signal, replicate 2 = 2.27e7; inactive.
Against CG4036 the deposit lists calcium entry signal, replicate 1 = 5.00e7; resting calcium signal, replicate 1 = 2.30e7; inactive.
CG3604 showed calcium entry signal, replicate 1 = 3.42e7; calcium entry signal, replicate 2 = 3.30e7; resting calcium signal, replicate 1 = 1.89e7; resting calcium signal, replicate 2 = 1.62e7; inactive.
Depletion of CG10104 resulted in: calcium entry signal, replicate 1 = 2.18e7; calcium entry signal, replicate 2 = 3.44e7; resting calcium signal, replicate 1 = 1.14e7; resting calcium signal, replicate 2 = 1.39e7; inactive.
After knock-down of CG12560, the record shows calcium entry signal, replicate 1 = 2.72e7; calcium entry signal, replicate 2 = 4.38e7; resting calcium signal, replicate 1 = 1.23e7; resting calcium signal, replicate 2 = 1.67e7; inactive.
With knock-down of CG14635, the record shows calcium entry signal, replicate 1 = 5.09e7; calcium entry signal, replicate 2 = 5.60e7; entry to resting ratio 2.1; resting calcium signal, replicate 1 = 2.42e7; resting calcium signal, replicate 2 = 2.24e7; inactive.
Setd3 (SET domain containing 3) #1 scored calcium entry signal, replicate 1 = 3.76e7; calcium entry signal, replicate 2 = 5.81e7; resting calcium signal, replicate 1 = 1.91e7; resting calcium signal, replicate 2 = 2.38e7; inactive.
For Setd3 (SET domain containing 3) #2, the entry reads calcium entry signal, replicate 1 = 3.47e7; calcium entry signal, replicate 2 = 5.03e7; resting calcium signal, replicate 1 = 1.68e7; resting calcium signal, replicate 2 = 2.15e7; inactive.
For CG10413, the entry reads calcium entry signal, replicate 1 = 3.49e7; resting calcium signal, replicate 1 = 1.55e7; inactive.
cpx (complexin) scored calcium entry signal, replicate 1 = 3.39e7; calcium entry signal, replicate 2 = 4.11e7; resting calcium signal, replicate 1 = 1.94e7; resting calcium signal, replicate 2 = 1.95e7; inactive.
With knock-down of CG32436 #1, the screen gave calcium entry signal, replicate 1 = 3.12e7; calcium entry signal, replicate 2 = 4.18e7; resting calcium signal, replicate 1 = 1.48e7; resting calcium signal, replicate 2 = 1.63e7; inactive.
Against CG32436 #2, the values are calcium entry signal, replicate 1 = 2.87e7; calcium entry signal, replicate 2 = 3.73e7; resting calcium signal, replicate 1 = 1.33e7; resting calcium signal, replicate 2 = 1.66e7; inactive.
For CG15237, the entry reads calcium entry signal, replicate 1 = 3.58e7; calcium entry signal, replicate 2 = 2.47e7; resting calcium signal, replicate 1 = 1.72e7; resting calcium signal, replicate 2 = 1.14e7; inactive.
Knock-down of CG13047 gave: calcium entry signal, replicate 1 = 3.27e7; calcium entry signal, replicate 2 = 4.98e7; resting calcium signal, replicate 1 = 1.67e7; resting calcium signal, replicate 2 = 1.98e7; inactive.
CG7963 scored calcium entry signal, replicate 1 = 3.76e7; calcium entry signal, replicate 2 = 3.26e7; resting calcium signal, replicate 1 = 1.84e7; resting calcium signal, replicate 2 = 1.53e7; inactive.
Silencing of CG30148 came out at: calcium entry signal, replicate 1 = 3.52e7; calcium entry signal, replicate 2 = 3.46e7; resting calcium signal, replicate 1 = 1.85e7; resting calcium signal, replicate 2 = 1.65e7; inactive.

2 entries from above, set out differently.
target gene,dsRNA no.,"calcium entry signal, replicate 1","calcium entry signal, replicate 2",entry to resting ratio,"resting calcium signal, replicate 1","resting calcium signal, replicate 2",Call
CG3604,1,3.42e7,3.30e7,,1.89e7,1.62e7,inactive
CG10104,1,2.18e7,3.44e7,,1.14e7,1.39e7,inactive
